{"source": "patent EP2899279A1", "binders": {"B1": {"name": "Nbp75 (VHH)", "VHH": "QVQLQESGGGSVQAGGSLRLSCVASEYPSSSTAMAWFRQAPGKEREGVAAINSVRHTTSYADSVKGRFTISKDNADNMMYLEMNSLKPEDTAIYYCAAADAIGLAEYWSTPTLSAARYKYWGQGTQVTVSS"}, "B2": {"name": "StrepII tagged Nb23 (VHH, not shown: small tags and cut ends)", "VHH": "QVQLQESGGGSVQVGGSLRVACAASGDTFSGYLAAWFRQAPGKGREGVAAINSKRHTTSYADSVKGRFTISKDNADNIMYLEMNSLKPEDTAIYYCAAADAIGLAEYWSTPTLSAARYKYWGQGTQVTVSS"}}, "key": {"[1]": {"molecular_target": "T1, Grapevine fanleaf virus strain F13 (purified viral particles) (Grapevine fanleaf virus, strain F13) (UniProt P18474)", "T1 sequence (looked up)": "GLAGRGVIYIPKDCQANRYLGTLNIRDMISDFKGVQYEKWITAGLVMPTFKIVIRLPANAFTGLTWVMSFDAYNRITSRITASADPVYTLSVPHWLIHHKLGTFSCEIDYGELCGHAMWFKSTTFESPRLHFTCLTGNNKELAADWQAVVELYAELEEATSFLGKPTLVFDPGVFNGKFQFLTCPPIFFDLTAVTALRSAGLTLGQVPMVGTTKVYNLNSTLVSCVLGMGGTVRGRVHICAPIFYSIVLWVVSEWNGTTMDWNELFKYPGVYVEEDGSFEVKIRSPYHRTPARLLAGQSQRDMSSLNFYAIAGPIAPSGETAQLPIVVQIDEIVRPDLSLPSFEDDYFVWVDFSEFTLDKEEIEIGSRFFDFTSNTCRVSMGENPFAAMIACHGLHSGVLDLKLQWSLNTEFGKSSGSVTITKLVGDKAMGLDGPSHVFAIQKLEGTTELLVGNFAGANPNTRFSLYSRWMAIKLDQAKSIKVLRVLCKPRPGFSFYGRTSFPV", "assay": "phage display biopanning and phage-ELISA against purified GFLV-F13 (VHH on phage)"}, "[2]": {"molecular_target": "T1, Grapevine fanleaf virus strain F13 (purified viral particles) (Grapevine fanleaf virus, strain F13)", "assay": "DAS-ELISA, legend of Figure 3B"}, "[3]": {"molecular_target": "T1, Grapevine fanleaf virus strain F13 (purified viral particles) (Grapevine fanleaf virus, strain F13)", "assay": "DAS-ELISA: virus captured by anti-GFLV polyclonals, StrepII tagged Nb23 at 1 µg/ml as detection antibody"}}, "note": "Results are given in words; binding and its absence hold for the method and conditions named. Some results given as binding are weak or reduced against the parent protein; the word gives no strength. For part of these data: Tags and fused reporters may be left off the sequences shown."}
{"binder": "B1", "values": [{"measurement": "binding", "setting": "[1]", "value": "binds"}]}
{"binder": "B2", "values": [{"measurement": "binding", "setting": "[2]", "value": "binds"}, {"measurement": "binding", "setting": "[3]", "value": "binds"}]}
